Ten compounds from article PMC6272198, “Isolation and Biochemical Characterization of Apios Tuber Lectin” (Molecules, 2015) can be followed below.

The data set relates to T1, Apios tuber lectin (ATL).
T1 construct: native protein purified from tubers (Fraction B)
In words: hemagglutination inhibition, rabbit erythrocytes. The format is biochemical, Apios americana. To be noted: 2-fold serial dilution of sugar; 2% rabbit erythrocytes.
The compound `OC[C@H]1OC(O)[C@H](O)[C@@H](O)[C@@H]1O` (stereo partly drawn) [D-Glucose] came in with a mM of 500 mM.
Turning to `N[C@H]1C(O)O[C@H](CO)[C@@H](O)[C@@H]1O` (stereo partly drawn) [D-Glucosamine], the mM is 63 mM.
The result for `OC1OC[C@@H](O)[C@@H](O)[C@H]1O` (stereo partly drawn) [D-Ribose] reads 125 mM; that for `OC[C@H]1OC(O)[C@@H](O)[C@@H](O)[C@@H]1O` (stereo partly drawn) [D-Mannose], 250 mM.
For `OC[C@H]1OC(O)[C@H](O)[C@@H](O)[C@H]1O` (stereo partly drawn) [D-Galactose], the mM is given as 125 mM.
Compound `CC(=O)N[C@H]1C(O)O[C@H](CO)[C@@H](O)[C@@H]1O` (stereo partly drawn) [N-Ac-D-glucosamine] registered a mM of over 1000 mM.
Take `CC(=O)N[C@H]1C(O)O[C@H](CO)[C@H](O)[C@@H]1O` (stereo partly drawn) [N-Ac-D-galactosamine]: the mM is given as over 1000 mM.
The compound `N[C@H]1C(O)O[C@H](CO)[C@H](O)[C@@H]1O` (stereo partly drawn) [D-Galactosamine] had a mM of 63 mM.
Take `CO[C@H]1O[C@H](CO)[C@@H](O)[C@H](O)[C@@H]1O` [Me-α-D-mannopyranoside]: the mM turned out to be 500 mM.
In the case of `C[C@@H]1OC(O)[C@@H](O)[C@H](O)[C@@H]1O` (stereo partly drawn) [L-Fucose], the mM worked out at 500 mM.
